Experimental data reported in article PMC5344889.

Tests used:
[1] = biological target: T1, eIF(iso)4E-NY (PeaeIF(iso)4E attached to the N-terminal fragment of YFP) (Arachis hypogaea (peanut)); experiment: split reporter; BiFC with split YFP; eIF4E/eIF(iso)4E in pEarleyGate202-NYFP, VPg/HC-Pro in pEarleyGate202-CYFP; transient expression in Arabidopsis protoplasts, 12-16 h in the dark, confocal laser-scanning microscopy
T1 sequence: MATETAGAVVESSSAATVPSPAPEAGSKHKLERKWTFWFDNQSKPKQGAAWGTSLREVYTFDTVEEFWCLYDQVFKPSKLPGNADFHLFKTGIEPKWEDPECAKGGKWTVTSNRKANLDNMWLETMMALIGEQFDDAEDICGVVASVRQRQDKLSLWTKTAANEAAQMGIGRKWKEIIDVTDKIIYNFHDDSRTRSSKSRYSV

[2] = biological target: T2, eIF4E-NY (PeaeIF4E attached to the N-terminal fragment of YFP) (Arachis hypogaea (peanut)) (UniProt K0P2S0); experiment: as above
T2 sequence: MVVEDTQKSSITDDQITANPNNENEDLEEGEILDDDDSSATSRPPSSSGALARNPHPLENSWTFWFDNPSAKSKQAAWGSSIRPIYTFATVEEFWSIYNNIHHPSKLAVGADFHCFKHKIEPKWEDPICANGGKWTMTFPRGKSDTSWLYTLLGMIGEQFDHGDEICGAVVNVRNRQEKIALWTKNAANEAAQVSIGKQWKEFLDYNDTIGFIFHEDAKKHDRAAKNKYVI

[3] = biological target: T3, PeaeIF(iso)4E (peanut eukaryotic translation initiation factor (iso)4E) in the bait vector pGBKT7 (Arachis hypogaea (peanut)); experiment: two-hybrid; Matchmaker Gold Yeast two-hybrid system, AH109 yeast cells; PStV VPg and HC-Pro in the prey vector pGADT7, eIF4E/eIF(iso)4E in the bait vector pGBKT7; selective medium SD/-Leu-Trp-His-Ade plus X-α-Gal, 4 days at 30°C
T3 sequence: T1 sequence

[4] = biological target: T4, PeaeIF4E (peanut eukaryotic translation initiation factor 4E) in the bait vector pGBKT7 (Arachis hypogaea (peanut)) (UniProt K0P2S0); experiment: as above
T4 sequence: T2 sequence

Substance | binding [1] | binding [2] | binding [3] | binding [4]
HC-Pro-CY (PStV HC-Pro fused to the C-terminal fragment of YFP) (Peanut stripe virus) | binds | binds | – | –
PStV HC-Pro (helper component proteinase) in the prey vector pGADT7 (Peanut stripe virus) | – | – | binds | binds
PStV VPg (viral protein genome-linked) in the prey vector pGADT7 (Peanut stripe virus) | – | – | binds | binds
VPg-CY (PStV VPg fused to the C-terminal fragment of YFP) (Peanut stripe virus) | binds | binds | – | –

These are yes or no findings as the source states them, for the method shown. Binding can be weak; no strength is given. Sequences can lack the tags named with a protein. For some assays here: Binding seen in cells or lysates may run through a third protein.
